* marks the point of attachment. Tos = Cc1ccc(S(=O)(=O)*)cc1; ClZ = O=C(OCc1ccccc1Cl)*; Cbz = O=C(OCc1ccccc1)*; Boc = CC(C)(C)OC(=O)*; OcHex = C1CCC(O*)CC1; OBn = c1ccc(CO*)cc1; Bn = c1ccc(C*)cc1; NHNH2 = NN*
assay: general procedure: solution-phase peptide synthesis; WSC/HOBT or WSC/HONB; active esters (OSu, ONp); azide method; settings: coupling step

Substance	step yield
Boc-D(OcHex)VGAGT(Bn)P-NH2	83.0%
Boc-GAS(Bn)L-OEt	77.8%
Boc-GAS(Bn)LS(Bn)T(Bn)E-OBn	76.8%
Boc-Gln-Glu(OcHex)-Leu-His(Tos)-Lys(Cl-Z)-Leu-Gln-Thr(Bzl)-Pro-Arg(Tos)-Thr(Bzl)-Asn -Thr(Bzl)-Gly-Ser(Bzl)-Gly-Thr(Bzl)-Pro-NH2	78.3%
Boc-Gln-Glu(OcHex)-Leu-His(Tos)-Lys(Cl-Z)-Leu-Gln-Thr(Bzl)-Pro-Gln-Thr(Bzl)-Asn-Thr(Bzl) -Gly-Ser(Bzl)-Gly-Thr(Bzl)-Pro-NH2	85.0%
Boc-Gln-Thr(Bzl)-Tyr(Cl2 -Bzl)-Pro-Arg(Tos)-Thr(Bzl)-Asp(OcHex)-val-Gly-Ala-Gly-Thr(Bzl)-Pro -NH2	97.7%
Boc-His(Tos)-Lys(Cl-Z)-Gln-Thr(Bzl)-Tyr(Cl2 -Bzl)-Pro-Arg(Tos)-Thr(Bzl)-Asp(OcHex)-Val-Gly-Ala -Gly-Thr(Bzl)-Pro-NH2	91.0%
Boc-His(Tos)-Lys(Cl-Z)-Leu-Gln-Thr(Bzl)-Pro-Gln-Thr(Bzl)-Asn-Thr(Bzl)-Gly- Ser(Bzl)-Gly -Thr(Bzl)-Pro-NH2	94.0%
Boc-His(Tos)-Lys(Cl-Z)-Leu-Gln-Thr(Bzl)-Tyr(Cl2 -Bzl)-Pro-Arg(Tos)-Thr(Bzl)-Asn-Thr(Bzl)-Gly-Ser(Bzl)-Gly-Thr(Bzl)-Pro -NH2	95.1%
Boc-K(Cbz)LS(Bn)QE(OcHex)LNK(ClZ)LQT(Bn)PQT(Bn)D(OcHex)VGAGT(Bn)P-NH2	88.0%
Boc-K(ClZ)LQT(Bn)PQT(Bn)NT(Bn)GS(Bn)GT(Bn)P-NH2	84.0%
Boc-K(ClZ)LS(Bn)QE(OcHex)LHK(ClZ)LQT(Bn)PQT(Bn)D(OBn)VGAGT(Bn)P-NH2	92.0%
Boc-K(ClZ)LS(Bn)QE(OcHex)LLK(ClZ)LQT(Bn)PR(Tos)T(Bn)NT(Bn)GS(Bn)GT(Bn)P-NH2	88.0%
Boc-K(ClZ)LS(Bn)QE(OcHex)LNK(ClZ)LQT(Bn)PR(Tos)T(Bn)D(OcHex)VGAGT(Bn)P-NH2	90.0%
Boc-K(ClZ)LS(Bn)QE(OcHex)LQK(ClZ)LQT(Bn)PR(Tos)T(Bn)NT(Bn)GS(Bn)GT(Bn)P-NH2	90.6%
Boc-Lys(Cl-Z)-Gln-Thr(Bzl)-Tyr(Cl2 -Bzl)-Pro-Arg(Tos)-Thr(Bzl)-Asn-Thr(Bzl)-Gly-Ser(Bzl)-Gly -Thr(Bzl)-Pro-NH2	97.1%
Boc-Lys(Cl-Z)-Leu-Ser(Bzl)-Gln-Glu(OcHex)-Leu-His(Tos)-Lys(Cl-Z)-Gln-Thr(Bzl)-Tyr(Cl2 -Bzl) -Pro-Arg(Tos)-Thr(Bzl)-Asn-Thr(Bzl)-Gly-Ser(Bzl)-GLy-Thr(Bzl)-Pro-NH2	90.0%

Substance	step yield
Boc-Lys(Cl-Z)-Leu-Ser(Bzl)-Gln-Glu(OcHex)-Leu-His(Tos)-Lys(Cl-Z)-Leu-Gln-Thr(Bzl)-Pro -Arg(Tos)-Thr(Bzl)-Asn-Thr(Bzl)-Gly-Ser(Bzl)-Gly-Thr(Bzl)-Pro-NH2	90.0%
Boc-Lys(Cl-Z)-Leu-Ser(Bzl)-Gln-Glu(OcHex)-Leu-His(Tos)-Lys(Cl-Z)-Leu-Gln-Thr(Bzl)-Pro -Gln-Thr(Bzl)-Asn-Thr(Bzl)-Gly-Ser(Bzl)-Gly-Thr(Bzl)-Pro-NH2	74.9%
Boc-Lys(Cl-Z)-Leu-Ser(Bzl)-Gln-Glu(OcHex)-Leu-His(Tos)-Lys(Cl-Z)-Leu-Gln-Thr(Bzl)-Tyr (Cl2 -Bzl)-Pro-Arg(Tos)-Thr(Bzl)-Asn-Thr(Bzl)-Gly-Ser(Bzl)-Gly-Thr(Bzl)-Pro-NH2	88.0%
Boc-Lys(Z)-Leu-Ser(Bzl)-Gln-Glu(OcHex)-Leu-His(Tos)-Lys(Cl-Z)-Leu-Gln-Thr(Bzl)-Pro -Arg(Tos)-Thr(Bzl)-Asp(OcHex)-Val-Gly-Ala-Gly-Thr(Bzl)-Pro-NH2	95.0%
Boc-NK(ClZ)LQT(Bn)PQT(Bn)NT(Bn)GS(Bn)GT(Bn)P-NH2	98.0%
Boc-NT(Bn)GS(Bn)GT(Bn)P-NH2	73.1%
Boc-QT(Bn)PR(Tos)T(Bn)NT(Bn)GS(Bn)GT(Bn)P-NH2	87.1%
Boc-R(Tos)T(Bn)NT(Bn)GS(Bn)GT(Bn)P-NH2	70.5%
Boc-S(Bn)GT(Bn)P-NH2	75.9%
Boc-S(Bn)K(ClZ)LQT(Bn)PQT(Bn)NT(Bn)GS(Bn)GT(Bn)P-NH2	92.0%
Boc-S(Bn)QE(OcHex)LAK(ClZ)LQT(Bn)PR(Tos)T(Bn)NT(Bn)GS(Bn)GT(Bn)P-NH2	98.5%
Boc-S(Bn)QE(OcHex)LGK(ClZ)LQT(Bn)PR(Tos)T(Bn)NT(Bn)GS(Bn)GT(Bn)P-NH2	99.0%
Boc-S(Bn)QE(OcHex)LNK(ClZ)LQT(Bn)PR(Tos)T(Bn)D(OcHex)VGAGT(Bn)P-NH2	95.0%
Boc-S(Bn)QE(OcHex)LS(Bn)K(ClZ)LQT(Bn)PR(Tos)T(Bn)NT(Bn)GS(Bn)GT(Bn)P-NH2	99.1%
Boc-T(Bn)GS(Bn)GT(Bn)P-NH2	77.7%
Boc-Thr(Bzl)-Tyr(Cl2 -Bzl)-Pro-Arg(Tos)-Thr(Bzl)-Asn-Thr(Bzl)-Gly-Ser(Bzl)-Gly-Thr(Bzl)-Pro-NH2	78.2%

same assay, conditions: late stage modification step

Substance	step yield
Boc-GAS(Bn)L-NHNH2	89.2%
Boc-GS(Bn)NL-NHNH2	79.0%

From patent US5204326 (dated 1993)
